One substance from patent US6281331 (dated 2001) can be followed below.

This data set is described as follows: general procedure: hybrid (solid and solution phase) peptide synthesis; 2-chlorotrityl chloride resin (super acid sensitive); HBTU/HOBT/DIEA (solid phase); HBTU/HOAT/EtPr2N (solution phase). The settings on record: late stage modification step.

As for “H-Glu(OtBu)-Lys(Boc)-Asn(trt)-Glu(OtBu)-Gln(trt)-Glu(OtBu) -Leu-Leu-Glu(OtBu)-Leu-Asp(tBu)-Lys(Boc)-Trp(Boc)-Ala -Ser(tBu)-Leu-Trp(Boc)-Asn(trt)-Trp(Boc)-NH2 (SEQ ID NO:19)”, the “final HPLC purity” value (HPLC) is more than 95%. In addition, the step yield is, setting by setting: (run 1) 97.5%; (run 2) 96.6%.
